These are yes or no findings as the source states them, for the method shown. In cells and extracts the contact can be indirect. Some results given as binding are weak or reduced against the parent protein; the word gives no strength. For part of these data: Where a sequence is shown, tags or fusion partners need not be part of it.
These substances were tested against T1, HSP20, wild type, transfected into HEKB2 / HEK293 cells (human) (UniProt O14558) (assay: co-immunopurification with HSP20 from co-transfected HEKB2 cells, Western blot).
T1 sequence: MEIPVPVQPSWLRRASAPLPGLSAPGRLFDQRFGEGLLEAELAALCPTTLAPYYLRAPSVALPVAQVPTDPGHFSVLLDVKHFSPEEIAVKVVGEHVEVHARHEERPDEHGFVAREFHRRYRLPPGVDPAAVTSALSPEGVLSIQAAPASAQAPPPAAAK

Chains of the proteins cited; added tags and fusions are not shown. Lines headed by an entry give the natural chain unless they say otherwise; changes in a name come on top. A line that says so, or that is headed by a name, gives the form on record, which may keep a tag or linker.
PDE4D1 (transfected into HEKB2 cells) (Q08499, form named): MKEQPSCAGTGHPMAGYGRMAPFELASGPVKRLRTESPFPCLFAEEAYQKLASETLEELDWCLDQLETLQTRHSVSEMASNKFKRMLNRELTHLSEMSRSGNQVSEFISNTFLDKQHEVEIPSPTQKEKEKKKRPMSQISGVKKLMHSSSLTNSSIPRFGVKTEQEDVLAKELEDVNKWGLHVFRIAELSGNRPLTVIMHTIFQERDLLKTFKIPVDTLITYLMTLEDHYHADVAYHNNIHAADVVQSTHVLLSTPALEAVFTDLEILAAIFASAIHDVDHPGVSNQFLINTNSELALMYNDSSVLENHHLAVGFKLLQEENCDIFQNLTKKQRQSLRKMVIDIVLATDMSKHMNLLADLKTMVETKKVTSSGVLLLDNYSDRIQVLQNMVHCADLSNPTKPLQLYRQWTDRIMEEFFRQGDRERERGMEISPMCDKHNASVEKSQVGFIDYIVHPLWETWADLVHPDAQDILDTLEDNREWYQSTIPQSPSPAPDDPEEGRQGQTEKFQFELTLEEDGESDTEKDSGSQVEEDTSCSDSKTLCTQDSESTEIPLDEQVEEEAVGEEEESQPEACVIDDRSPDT
GST-PDE4D3 (Q08499, form named): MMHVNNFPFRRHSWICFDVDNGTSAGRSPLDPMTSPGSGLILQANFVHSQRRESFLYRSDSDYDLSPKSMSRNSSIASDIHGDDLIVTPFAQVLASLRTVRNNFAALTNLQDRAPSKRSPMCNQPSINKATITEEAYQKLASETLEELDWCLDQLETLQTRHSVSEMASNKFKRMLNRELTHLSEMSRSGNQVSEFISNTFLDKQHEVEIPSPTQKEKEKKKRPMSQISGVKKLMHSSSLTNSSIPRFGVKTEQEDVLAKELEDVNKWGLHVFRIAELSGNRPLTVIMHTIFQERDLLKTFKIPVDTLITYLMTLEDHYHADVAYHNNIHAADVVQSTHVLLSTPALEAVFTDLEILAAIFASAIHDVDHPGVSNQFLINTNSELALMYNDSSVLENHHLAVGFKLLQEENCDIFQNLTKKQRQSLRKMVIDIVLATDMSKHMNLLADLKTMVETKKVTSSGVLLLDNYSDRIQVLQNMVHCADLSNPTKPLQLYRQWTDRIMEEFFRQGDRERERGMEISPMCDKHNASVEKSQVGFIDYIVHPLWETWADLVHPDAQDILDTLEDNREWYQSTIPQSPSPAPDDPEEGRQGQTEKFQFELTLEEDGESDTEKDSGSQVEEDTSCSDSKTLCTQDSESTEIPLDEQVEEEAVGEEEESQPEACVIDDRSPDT
PDE4D7 (transfected into HEKB2 cells) (Q08499, form named): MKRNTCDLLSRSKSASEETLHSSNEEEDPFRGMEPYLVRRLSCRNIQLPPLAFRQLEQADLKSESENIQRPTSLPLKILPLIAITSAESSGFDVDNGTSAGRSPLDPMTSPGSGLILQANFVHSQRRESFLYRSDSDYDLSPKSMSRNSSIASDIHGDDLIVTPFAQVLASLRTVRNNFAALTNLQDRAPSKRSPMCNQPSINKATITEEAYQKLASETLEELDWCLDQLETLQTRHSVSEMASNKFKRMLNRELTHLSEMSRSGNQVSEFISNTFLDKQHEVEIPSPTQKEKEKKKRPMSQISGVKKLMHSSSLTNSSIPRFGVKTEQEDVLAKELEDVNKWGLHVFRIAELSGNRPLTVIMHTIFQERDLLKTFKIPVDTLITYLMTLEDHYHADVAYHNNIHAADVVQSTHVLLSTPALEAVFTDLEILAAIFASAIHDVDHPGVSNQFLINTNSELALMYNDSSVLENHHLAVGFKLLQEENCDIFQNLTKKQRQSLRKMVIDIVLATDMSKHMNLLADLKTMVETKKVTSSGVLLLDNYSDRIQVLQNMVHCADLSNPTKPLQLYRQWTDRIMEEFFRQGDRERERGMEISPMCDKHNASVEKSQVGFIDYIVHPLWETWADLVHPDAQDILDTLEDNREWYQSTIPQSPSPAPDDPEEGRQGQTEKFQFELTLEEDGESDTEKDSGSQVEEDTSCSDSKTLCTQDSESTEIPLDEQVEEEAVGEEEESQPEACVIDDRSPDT
PDE4D8 (transfected into HEKB2 cells) (Q08499, form named): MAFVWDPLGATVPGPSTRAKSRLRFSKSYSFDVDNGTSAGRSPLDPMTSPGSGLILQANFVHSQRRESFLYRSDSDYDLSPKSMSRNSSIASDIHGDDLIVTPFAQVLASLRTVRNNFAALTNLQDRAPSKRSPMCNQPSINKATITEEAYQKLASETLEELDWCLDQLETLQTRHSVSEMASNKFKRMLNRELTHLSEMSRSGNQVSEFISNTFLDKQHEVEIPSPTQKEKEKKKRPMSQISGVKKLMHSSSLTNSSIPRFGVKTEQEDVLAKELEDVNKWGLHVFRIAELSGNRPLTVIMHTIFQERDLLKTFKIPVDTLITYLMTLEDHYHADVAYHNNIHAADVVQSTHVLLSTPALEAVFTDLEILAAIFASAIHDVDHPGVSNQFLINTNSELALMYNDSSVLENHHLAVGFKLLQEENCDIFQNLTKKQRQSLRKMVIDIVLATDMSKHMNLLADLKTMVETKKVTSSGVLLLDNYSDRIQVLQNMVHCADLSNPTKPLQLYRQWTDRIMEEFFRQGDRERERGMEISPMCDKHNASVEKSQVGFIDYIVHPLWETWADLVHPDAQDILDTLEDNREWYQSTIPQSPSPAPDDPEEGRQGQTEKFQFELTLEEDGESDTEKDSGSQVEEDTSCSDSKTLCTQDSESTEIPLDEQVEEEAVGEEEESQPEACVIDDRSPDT
PDE4D9 (transfected into HEKB2 cells) (Q08499, form named): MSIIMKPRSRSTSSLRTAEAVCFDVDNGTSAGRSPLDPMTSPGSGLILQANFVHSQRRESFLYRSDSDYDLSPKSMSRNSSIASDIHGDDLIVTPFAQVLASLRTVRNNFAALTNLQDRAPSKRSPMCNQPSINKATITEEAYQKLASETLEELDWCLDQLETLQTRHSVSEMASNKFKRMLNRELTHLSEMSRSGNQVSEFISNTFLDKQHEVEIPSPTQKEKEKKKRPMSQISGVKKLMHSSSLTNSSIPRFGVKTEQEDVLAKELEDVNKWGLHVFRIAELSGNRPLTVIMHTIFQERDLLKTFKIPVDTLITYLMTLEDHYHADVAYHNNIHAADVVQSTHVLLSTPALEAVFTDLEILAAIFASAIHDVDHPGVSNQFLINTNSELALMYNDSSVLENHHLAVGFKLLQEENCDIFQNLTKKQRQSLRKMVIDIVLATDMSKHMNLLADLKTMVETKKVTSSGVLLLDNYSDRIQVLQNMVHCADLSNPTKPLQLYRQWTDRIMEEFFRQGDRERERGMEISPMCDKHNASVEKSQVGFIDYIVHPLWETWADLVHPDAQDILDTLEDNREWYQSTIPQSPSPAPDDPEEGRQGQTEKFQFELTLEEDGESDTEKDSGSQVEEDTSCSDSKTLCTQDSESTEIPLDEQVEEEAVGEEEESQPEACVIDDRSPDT
GST-PDE4B3 (Q07343, form named): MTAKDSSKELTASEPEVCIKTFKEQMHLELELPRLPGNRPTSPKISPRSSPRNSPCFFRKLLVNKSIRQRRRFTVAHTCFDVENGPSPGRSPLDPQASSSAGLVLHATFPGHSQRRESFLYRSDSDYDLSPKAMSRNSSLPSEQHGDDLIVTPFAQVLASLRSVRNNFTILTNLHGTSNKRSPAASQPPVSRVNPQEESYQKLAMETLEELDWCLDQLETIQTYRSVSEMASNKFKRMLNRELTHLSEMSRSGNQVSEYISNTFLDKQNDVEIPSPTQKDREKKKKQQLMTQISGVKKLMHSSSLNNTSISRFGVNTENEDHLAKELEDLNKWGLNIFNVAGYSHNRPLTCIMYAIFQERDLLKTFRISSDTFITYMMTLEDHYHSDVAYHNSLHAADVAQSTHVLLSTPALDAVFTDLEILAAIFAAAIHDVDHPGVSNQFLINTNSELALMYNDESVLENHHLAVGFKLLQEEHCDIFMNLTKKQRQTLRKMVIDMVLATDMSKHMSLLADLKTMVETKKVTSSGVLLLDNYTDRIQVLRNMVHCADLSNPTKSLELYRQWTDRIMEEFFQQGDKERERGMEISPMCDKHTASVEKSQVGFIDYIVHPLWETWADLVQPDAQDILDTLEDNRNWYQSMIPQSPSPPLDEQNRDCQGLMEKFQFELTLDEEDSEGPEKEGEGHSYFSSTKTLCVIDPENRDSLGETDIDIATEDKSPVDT

binding, binds:
PDE4D1 (transfected into HEKB2 cells) (from UniProt Q08499 1-584) (enzyme), PDE4D2 (transfected into HEKB2 cells) (from UniProt Q08499 1-507) (enzyme), PDE4D3 (transfected into HEKB2 cells) (from UniProt Q08499 1-673) (enzyme), PDE4D7 (transfected into HEKB2 cells) (from UniProt Q08499 1-748) (enzyme), PDE4D8 (transfected into HEKB2 cells) (from UniProt Q08499 1-687) (enzyme), PDE4D9 (transfected into HEKB2 cells) (from UniProt Q08499 1-679) (enzyme)

What follows are substances tested against T2, His-HSP20 (purified recombinant His-tagged HSP20) (human) (UniProt O14558) (assay: pull-down of HSP20 by its His tag, test for co-purification of PDE4).
T2 sequence: T1 sequence

binding, binds:
MBP-PDE4D3 (from UniProt Q08499 1-673) (enzyme)

The substances below were run against T2, His-HSP20 (purified recombinant His-tagged HSP20) (human) (assay: GST pull-down with purified recombinant proteins, immunoblot (data not shown)).

binding, binds:
GST-PDE4B3 (from UniProt Q07343 1-721) (enzyme), GST-PDE4D3 (from UniProt Q08499 1-673) (enzyme)

Reference: patent US20130209439A1, “INHIBITORS OF PDE4 BINDING TO HSP20” (THE UNIVERSITY COURT OF THE UNIVERSITY OF GLASGOW, priority 2010, published 2013)
